Laboratory results taken from PubChem BioAssay AID590 (National Center for Advancing Translational Sciences (NCATS), 2007).
Several values for one entry are separate records, joined by “and”; a condition that tells them apart may be missing. Equal values may be shown once. In all, about 59,000 compounds went through this assay and about 6,500 (11%) were called active. The inconclusive results got no clear call from the source; some entries with a clear call stand among them for comparison. No stated cut-off is given here; in the data, active means max dye-equivalent concentration above about 10 nM; inconclusive means mostly about 1.1 nM to 9.6 nM; inactive means weaker than that.

Test: qHTS Assay for Spectroscopic Profiling in A350 Spectral Region
Settings: Compound autofluorescence, 340/450 nm, Alexa 350 dye-equivalents; active compounds read high

| SMILES | max dye-equivalent concentration |
| --- | --- |
| O=C(O)C(Cc1ccccc1)Cc1ccccc1 | inactive |
| O=C(O)CCc1ccc(-c2ccccc2)n1CC(=O)O | inconclusive: 6.8e-09 M |
| O=C(Cn1c(=O)c2c(ncn2C2CCCC2)n(Cc2ccccc2)c1=O)N1CCc2ccccc21 | inconclusive: 2.4e-09 M |
| Cc1cc2oc(=O)cc(CN3CCN(C/C=C/c4ccccc4)CC3)c2cc1O | inconclusive: 5.9e-09 M |
| CCn1cc(C(=O)OCC(=O)OC2CC(C)CCC2C(C)C)c(=O)c2ccc(C)nc21 (configuration not stated) | inactive |
| O=C(Nc1nnc(C2CCCO2)s1)c1cccs1 (configuration not stated) | active: 2.9e-08 M |
| CCN1CCN(c2ncc(C(=O)Nc3ccccc3C(=O)OC)c3ccccc23)CC1 | active: 1.2e-08 M |
| OCCN1CCN(CCCN2c3ccccc3Sc3ccc(C(F)(F)F)cc32)CC1 | inconclusive: 1.6e-09 M |
| O=C(O)CCC(=O)OCC1CCCO1 (configuration not stated) | inconclusive: 2.2e-09 M |
| O=C(NC1CCCCC1)N1CCc2[nH]c3ccccc3c2C1 | inconclusive: 2.3e-09 M |
| Oc1ccc(C=Nc2ccc3ncccc3c2)c(O)c1 | active: 1e-08 M |
| Cc1ccc(C(=O)CS(C)(=O)=O)cc1 | active: 1.9e-08 M |
| N#CC1(C#N)C2=C(CCCC2)NC(c2ccccc2)C1(C#N)C#N (configuration not stated) | active: 1.9e-08 M |
| CC(C)CC(c1nnnn1CC1CCCO1)N1CCN(c2cccc(Cl)c2)CC1 (configuration not stated) | inconclusive: 1.9e-09 M |
| COc1ccccc1-c1nc(C(N)=O)c2[nH]c(=O)n(-c3cccc(C)c3)c2n1 | active: 9.3e-08 M |
| COc1ccc(OC)c(C2/C(=C(\O)c3ccc4c(c3)OCCO4)C(=O)C(=O)N2CCCN(C)C)c1 (configuration not stated) | inconclusive: 1.6e-09 M |
| COc1ccc2c(c1OC)C(=O)N(C(C)C(=O)O)C2=O (configuration not stated) | active: 3.1e-08 M |
| O=C(O)C(CC(=O)N1CCOCC1)NCc1ccccc1 (configuration not stated) | inactive |
| CN1CCc2c(sc3c2c(=O)n(-c2cccc(Cl)c2)c2nncn32)C1 | inconclusive: 1.2e-09 M |
| COc1cccc(Nc2ncc3nc(CCc4ccccc4)c(=O)n(C4CC4)c3n2)c1 | inactive |
| Cc1nc2ccccn2c1/C(O)=C1\C(=O)C(=O)N(CCN(C)C)C1c1cccnc1 (configuration not stated) | inconclusive: 1.7e-09 M |
| CN(C(=O)c1ccccc1Cl)c1ccccc1 | inactive |
| COc1ccc(OC)c(N/C(=N\c2nc(C)cc(C)n2)NC(=O)c2ccco2)c1 | inconclusive: 2.6e-09 M |

| SMILES | max dye-equivalent concentration |
| --- | --- |
| CCn1c(CNc2ccccc2Cl)nnc1SCCN1CCCCC1 | inconclusive: 1.8e-09 M |
| Nc1c(C(=O)NCCN2CCOCC2)c2nc3ccccc3nc2n1CCc1ccccc1F | active: 1.4e-06 M |
| Cc1cnc(CNc2ccnc(-c3cccnc3)n2)cn1 | inactive |
| S=C(S)NCCCn1ccnc1 | inactive |
| O=C(Nc1ccccc1)N1CC[C@@]2(CCCN(C(=O)c3cc(C(F)(F)F)cc(C(F)(F)F)c3)C2)C1 | inactive |
| CCOc1ccccc1C(=O)N(C)Cc1cc2cc(OC)ccc2[nH]c1=O | active: 3.8e-07 M |
| O=[N+]([O-])c1ccc(CSCc2ccc(Cl)cc2)cc1 | inactive |
| Cc1noc(C)c1C(=O)N1CCC2(CCCN(Cc3ccccc3)C2)CC1 | inconclusive: 5.1e-09 M |
| Cc1cnc(C(=O)Nc2ccccc2-c2ccc(C)o2)cn1 | inconclusive: 3.5e-09 M |
| COc1ccc(-c2nc(N3CCOCC3)nc3nn4c(C)c(CCC(=O)O)c(C)nc4c23)cc1 | active: 4.7e-07 M |
| O=C(Cn1c(=O)[nH]c2ccsc2c1=O)N1CCN(c2ccc(F)cc2)CC1 | inactive |
| CC(=O)c1c(C)nc2ccccc2c1N | active: 1e-08 M |
| Nc1c(S(=O)(=O)c2cccs2)c2nc3ccccc3nc2n1Cc1cccs1 | active: 8.9e-07 M |
| CCOC(=O)c1cc(-c2ccncc2)nc2c1c(C)nn2C | active: 1.6e-07 M |
| O=C(COC(=O)c1ccc(=O)n(Cc2ccccc2)n1)Nc1ccc2c(c1)OCCO2 | inconclusive: 1.5e-09 M |
| CCc1nc(NC(C)C)c2oc3ccccc3c2n1 | inconclusive: 1.3e-09 M |
| O=C(Nc1ccc(Cl)cn1)c1cc(S(=O)(=O)N2CCCCC2)ccc1Cl | inconclusive: 4.2e-09 M |
| Cc1ccc(C(=O)OCc2nnc(-c3ccccc3)o2)o1 | inactive |
| O=C(CN1CCN(Cc2ccccc2)CC1)c1ccc(Br)cc1 | inconclusive: 5.3e-09 M |
| COc1ccc(-n2nc3ccccc3n2)cc1 | inconclusive: 2.8e-09 M |
| CCCSc1nc(N2CCCC2)c2c(c1C#N)CC(C)(C)OC2 | inconclusive: 9.5e-09 M |
| O=C(NC1CCCCCCC1)C1CCN(c2nc3ccccc3o2)CC1 | inconclusive: 4.2e-09 M |
| COc1ccc(Cn2nnnc2C(c2cc3ccc(OC)cc3[nH]c2=O)N2CCCCCC2)cc1 (configuration not stated) | inconclusive: 7.8e-09 M |

| SMILES | max dye-equivalent concentration |
| --- | --- |
| Cc1ccc(S(=O)(=O)c2cc3c(=O)n4ccccc4nc3n(C)c2=N)cc1 | active: 6.2e-07 M |
| COc1cc(C2C(C(=O)OC(C)C)=C(C)Nc3[nH]c(=O)[nH]c(=O)c32)ccc1O (configuration not stated) | inconclusive: 5.4e-09 M |
| Cc1cc(C)n2ncc(C(=O)NCc3cccnc3)c2n1 | active: 1.2e-08 M |
| COCCCNc1nc2c(c(=O)n(C)c(=O)n2C)n1Cc1cccc(OC)c1 | active: 6.3e-08 M |
| Cc1ccccc1[C@@H](OCCN(C)C)c1ccccc1 | inconclusive: 2.9e-09 M and inconclusive: 1.6e-09 M |
| COc1ccccc1CN(CC(=O)NCC1CCCO1)C(=O)CNS(=O)(=O)c1ccc(C)cc1 (configuration not stated) | inconclusive: 2.4e-09 M |
| CCOC(=O)c1cc2cc(OC)ccc2[nH]1 | active: 2e-08 M |
| Cc1nnc(SCCn2c(Br)nc3c2c(=O)n(C)c(=O)n3C)s1 | inconclusive: 2.1e-09 M |
| CCOC(=O)C1C(=O)C(C(=O)OCC)C(c2cccnc2)NC1c1cccnc1 (configuration not stated) | inconclusive: 4e-09 M |
| CCN(CC)C(=O)c1sc2nc(-c3cccs3)cc(-c3cccs3)c2c1N | active: 6.4e-08 M |
| O=C(CCN1CCOCC1)Nc1ccc(F)cc1F | inactive |
| CCCn1c(SCC(=O)NC2CCCCC2)nnc1-c1ccncc1 | inconclusive: 1.6e-09 M |
| O=C(NCc1cn2ccsc2n1)Nc1cccc(Cl)c1 | inactive |
| CCN1C(=O)/C(=C2/Sc3ccccc3N2CCCS(=O)(=O)O)SC1=S | inconclusive: 1.5e-09 M |
| O=C(O)C1CCNCC1 | inconclusive: 1.1e-09 M |
| CCOC(=O)C1CCCN(c2nc(C)nc3c2oc2ccccc23)C1 (configuration not stated) | inactive |
| Cn1c(=O)c2[nH]c(/N=N\N3CCN(CCO)CC3)nc2n(C)c1=O | inconclusive: 1.2e-09 M |
| CCNc1nc(Oc2ccccc2)nc(OC(C)C(=O)OCC)n1 (configuration not stated) | inconclusive: 2.6e-09 M |
| CC(NS(=O)(=O)c1ccccc1)C(c1cccs1)N1CCN(C)CC1 (configuration not stated) | inconclusive: 2.2e-09 M |
| CN1CCN(S(=O)(=O)c2ccc(N(C)Cc3cccs3)nc2)CC1 | inactive |
| Cc1cccc(CNc2ncncc2-c2ccc(C(=O)N(C)C)cc2)c1 | inactive |
| CS(=O)(=O)N1CCC2(CCN(c3ccncc3)CC2)CC1 | inactive |
| O=S(=O)(CCCc1ccccc1)c1ncn[nH]1 | inconclusive: 2.1e-09 M |

| SMILES | max dye-equivalent concentration |
| --- | --- |
| COCCN(CCOC)C(=O)c1cc2c(=O)n3ccccc3nc2s1 | active: 5.4e-06 M |
| CCc1nnc(NC(=O)CSc2nnc(-c3cc4ccccc4cc3O)n2CCOC)s1 | inconclusive: 5e-09 M |
| N#C/C(=C\Nc1ccccn1)C(=O)c1ccco1 | inconclusive: 2.7e-09 M |
| COc1ccc(CC(=O)OCc2cc3cccc(C)c3[nH]c2=O)cc1 | inconclusive: 2.6e-09 M |
| CCN(C(=O)CSc1nncs1)c1c(N)n(Cc2ccccc2)c(=O)[nH]c1=O | inconclusive: 2.9e-09 M |
| CCN1CCN(C(=O)c2nn(-c3ccc(C)cc3)c(=O)c3c2c2ccccc2n3C)CC1 | active: 1.7e-08 M |
| CSC1=Nc2sc3c(c2C2=NCCN12)CCCC3 | inconclusive: 8.1e-09 M |
| CCCCCCn1c(C(C)O)nc2ccccc21 (configuration not stated) | inconclusive: 4.1e-09 M |
| O=C(NCc1ccco1)c1ccc(=O)oc1 | inconclusive: 8e-09 M |
| NC(=O)c1ncn([C@@H]2O[C@@H](CO)[C@@H](O)[C@H]2O)n1 | inactive |
| Cc1ccc(C(=O)C2=C(O)C(=O)N(c3ncccn3)C2c2cccc(Cl)c2)o1 (configuration not stated) | inconclusive: 1.3e-09 M |
| COc1cc2nncc(SCc3ccc(Cl)c(Cl)c3)c2cc1OC | inactive |
| CCO[C@H]1O[C@@H]([C@H](COCc2ccccc2)OCc2ccccc2)[C@@H](OCc2ccccc2)[C@H]1O | inconclusive: 4.9e-09 M |
| Cc1nn2c(c1-c1ccccc1)N=C(c1ccco1)CC2c1ccccc1 (configuration not stated) | inconclusive: 8e-09 M |
| Cn1c(C(=O)O)c(CC(=O)Nc2ccc3c(c2)OCCO3)c2ccccc21 | active: 2.5e-08 M |
| CS(=O)(=O)N1CCC2(CC1)CN(Cc1cc(C(F)(F)F)cc(C(F)(F)F)c1)C2 | inactive |
| CCc1ccc2[nH]c(=O)c(C(c3nnnn3Cc3ccc(OC)cc3)N3CCOCC3)cc2c1 (configuration not stated) | active: 4.3e-08 M |
| COc1ncc2nc(-c3cn(C)c4ccccc34)c(=O)n(-c3ccccc3)c2n1 | inactive |
| Cn1c(=O)c2c(-c3ccccc3)n(CCCN3CCOCC3)cc2n(C)c1=O | inconclusive: 4.5e-09 M |
| COC(=O)N1CCC2(CCCN(C(=O)Nc3cccc(C#N)c3)C2)CC1 | inactive |
| CCCc1ncc(C[n+]2ccccc2C)c(N)n1 | inactive |
| OC(COCC1COc2ccccc2O1)CN1CCc2ccccc2C1 (configuration not stated) | inactive |
| COc1ccc(OC)c(NC(=O)c2cc(S(=O)(=O)NCc3ccco3)ccc2F)c1 | inactive |

19 entries already listed, sorted by length of the SMILES, rising:

| SMILES | max dye-equivalent concentration |
| --- | --- |
| CCCCCCn1c(C(C)O)nc2ccccc21 (configuration not stated) | inconclusive: 4.1e-09 M |
| CCCc1ncc(C[n+]2ccccc2C)c(N)n1 | inactive |
| O=S(=O)(CCCc1ccccc1)c1ncn[nH]1 | inconclusive: 2.1e-09 M |
| N#C/C(=C\Nc1ccccn1)C(=O)c1ccco1 | inconclusive: 2.7e-09 M |
| OC(COCC1COc2ccccc2O1)CN1CCc2ccccc2C1 (configuration not stated) | inactive |
| COc1cc2nncc(SCc3ccc(Cl)c(Cl)c3)c2cc1OC | inactive |
| COCCN(CCOC)C(=O)c1cc2c(=O)n3ccccc3nc2s1 | active: 5.4e-06 M |
| COc1ccc(CC(=O)OCc2cc3cccc(C)c3[nH]c2=O)cc1 | inconclusive: 2.6e-09 M |
| Cc1nn2c(c1-c1ccccc1)N=C(c1ccco1)CC2c1ccccc1 (configuration not stated) | inconclusive: 8e-09 M |
| COC(=O)N1CCC2(CCCN(C(=O)Nc3cccc(C#N)c3)C2)CC1 | inactive |
| Cn1c(C(=O)O)c(CC(=O)Nc2ccc3c(c2)OCCO3)c2ccccc21 | active: 2.5e-08 M |
| CCc1nnc(NC(=O)CSc2nnc(-c3cc4ccccc4cc3O)n2CCOC)s1 | inconclusive: 5e-09 M |
| NC(=O)c1ncn([C@@H]2O[C@@H](CO)[C@@H](O)[C@H]2O)n1 | inactive |
| CCN(C(=O)CSc1nncs1)c1c(N)n(Cc2ccccc2)c(=O)[nH]c1=O | inconclusive: 2.9e-09 M |
| COc1ccc(OC)c(NC(=O)c2cc(S(=O)(=O)NCc3ccco3)ccc2F)c1 | inactive |
| Cc1ccc(C(=O)C2=C(O)C(=O)N(c3ncccn3)C2c2cccc(Cl)c2)o1 (configuration not stated) | inconclusive: 1.3e-09 M |
| CCN1CCN(C(=O)c2nn(-c3ccc(C)cc3)c(=O)c3c2c2ccccc2n3C)CC1 | active: 1.7e-08 M |
| CS(=O)(=O)N1CCC2(CC1)CN(Cc1cc(C(F)(F)F)cc(C(F)(F)F)c1)C2 | inactive |
| CCO[C@H]1O[C@@H]([C@H](COCc2ccccc2)OCc2ccccc2)[C@@H](OCc2ccccc2)[C@H]1O | inconclusive: 4.9e-09 M |
